# Test system: L. (L.) infantum intracellular amastigotes
# Experiment: Activity against intracellular amastigotes in peritoneal macrophages, Giemsa staining and light microscopy
# Format: cell-based, Leishmania (Leishmania) infantum
# Settings: selectivity index = CC50 in NCTC cells / IC50 in amastigotes
# Protocol: L. (L.) infantum (MHOM/BR/1972/LD) promastigotes were maintained in M-199 medium supplemented with 10% heat-inactivated fetal bovine serum (FBS) (Gibco, Thermo Fisher Scientific, São Paulo, Brazil), 0.25% hemin (Sigma-Aldrich), and 5% human urine at 24 °C. Amastigotes were obtained from the spleen of previously infected hamsters by differential centrifugation. Macrophages were collected from the peritoneal cavity of BALB/c mice by washing with RPMI-1640 medium supplemented with 10% FBS, and were maintained at 37 °C in a 5% CO2-humidified incubator. Murine fibroblasts NCTC (clone L929 ATCC) were used to evaluate the cytotoxicity of the tested compounds. NCTC cells were maintained in M-199 medium supplemented with 10% FBS and 20 μg/mL gentamicin at 37 °C in a 5% CO2-humidified incubator.
# Murine peritoneal macrophages were collected from the peritoneal cavity of BALB/c mice, and the macrophages were seeded at 1 × 10^5/well for 24 h in a 16-well slide. Amastigotes were prepared (as described previously), seeded at a ratio 1:10 (macrophages:amastigotes) and kept at 37 °C in a 5% CO2-humidified incubator for 24 h. Test compounds were incubated to the highest concentration of 100 μM with infected macrophages for 120 h. Miltefosine was used as a standard drug. Subsequently, the cells were fixed with methanol, stained with Giemsa (Merck KGaA, Darmstadt, Germany), and observed using a light microscope. The parasite burden was determined by the number of infected macrophages out of 400 cells.
# Data processing and statistical analyses was done with GraphPad Prism® 5.0 (GraphPad Software, Inc. La Jolla, CA, USA). For determination of antileishmanial activity and NCTC cytotoxicity, the IC50 and CC50 values were calculated after normalization using sigmoidal dose-response curves. The evaluation of statistical significance of multiple pairs was done with a Tukey's range test, which corrects for the increased probability of a type I error during multiple comparison.
SMILES,SI (NCTC/Amastigote),SI (NCTC/Amastigote) (listed as helenalin acetate (1))
"C=C1C(=O)O[C@@H]2[C@H]3C(C)=CC[C@@]34O[C@@]4(C)CC[C@@H]12 [Arglabin (3), Arglabin]",5.3,–
"C=C(CO)C(=O)O[C@H]1CC(=C)[C@@H]2C[C@H](O)C(=C)[C@@H]2[C@H]2OC(=O)C(=C)[C@@H]21 [Cynaropicrin (4), Cynaropicrin]",4.8,–
"C=C1C(=O)OC2CC(C)C3C=CC(=O)C3(C)C(OC(C)=O)C12 (centres unmarked) [Helenalin acetate (1), Helenalin acetate]",7.0,7
"C=C1C(=O)O[C@H]2C[C@@H](C)[C@@H]3C=CC(=O)[C@@]3(C)[C@H](O)[C@H]12 [Mexicanin I (2), Mexicanin I]",5.3,–
